Values quoted from earlier work as cited in publication PMC9505670, “The Effect of Short-Chain Fatty Acids on Growth of Cryptosporidium parvum In Vitro” (Microorganisms, 2022).

Test system: CpHDAC3
Details: recombinant protein; cited from earlier work

Q: With O=C(CCCCCCC(=O)Nc1ccccc1)NO [vorinostat] as the compound, how does the “inhibition of CpHDAC3” value read?
A: have activity
